{"source": "paper PMC4671723", "binders": {"B1": {"name": "CURLY LEAF (CLF), P93831 1-902 (protein)", "chain": "MASEASPSSSATRSEPPKDSPAEERGPASKEVSEVIESLKKKLAADRCISIKKRIDENKKNLFAITQSFMRSSMERGGSCKDGSDLLVKRQRDSPGMKSGIDESNNNRYVEDGPASSGMVQGSSVPVKISLRPIKMPDIKRLSPYTTWVFLDRNQRMTEDQSVVGRRRIYYDQTGGEALICSDSEEEAIDDEEEKRDFLEPEDYIIRMTLEQLGLSDSVLAELASFLSRSTSEIKARHGVLMKEKEVSESGDNQAESSLLNKDMEGALDSFDNLFCRRCLVFDCRLHGCSQDLIFPAEKPAPWCPPVDENLTCGANCYKTLLKSGRFPGYGTIEGKTGTSSDGAGTKTTPTKFSSKLNGRKPKTFPSESASSNEKCALETSDSENGLQQDTNSDKVSSSPKVKGSGRRVGRKRNKNRVAERVPRKTQKRQKKTEASDSDSIASGSCSPSDAKHKDNEDATSSSQKHVKSGNSGKSRKNGTPAEVSNNSVKDDVPVCQSNEVASELDAPGSDESLRKEEFMGETVSRGRLATNKLWRPLEKSLFDKGVEIFGMNSCLIARNLLSGFKSCWEVFQYMTCSENKASFFGGDGLNPDGSSKFDINGNMVNNQVRRRSRFLRRRGKVRRLKYTWKSAAYHSIRKRITEKKDQPCRQFNPCNCKIACGKECPCLLNGTCCEKYCGCPKSCKNRFRGCHCAKSQCRSRQCPCFAADRECDPDVCRNCWVIGGDGSLGVPSQRGDNYECRNMKLLLKQQQRVLLGISDVSGWGAFLKNSVSKHEYLGEYTGELISHKEADKRGKIYDRENCSFLFNLNDQFVLDAYRKGDKLKFANHSPEPNCYAKVIMVAGDHRVGIFAKERILAGEELFYDYRYEPDRAPAWAKKPEAPGSKKDENVTPSVGRPKKLA"}, "B2": {"name": "EMBRYONIC FLOWER2 (EMF2), Q8L6Y4 1-631 (protein)", "chain": "MPGIPLVSRETSSCSRSTEQMCHEDSRLRISEEEEIAAEESLAAYCKPVELYNIIQRRAIRNPLFLQRCLHYKIEAKHKRRIQMTVFLSGAIDAGVQTQKLFPLYILLARLVSPKPVAEYSAVYRFSRACILTGGLGVDGVSQAQANFLLPDMNRLALEAKSGSLAILFISFAGAQNSQFGIDSGKIHSGNIGGHCLWSKIPLQSLYASWQKSPNMDLGQRVDTVSLVEMQPCFIKLKSMSEEKCVSIQVPSNPLTSSSPQQVQVTISAEEVGSTEKSPYSSFSYNDISSSSLLQIIRLRTGNVVFNYRYYNNKLQKTEVTEDFSCPFCLVKCASFKGLRYHLPSTHDLLNFEFWVTEEFQAVNVSLKTETMISKVNEDDVDPKQQTFFFSSKKFRRRRQKSQVRSSRQGPHLGLGCEVLDKTDDAHSVRSEKSRIPPGKHYERIGGAESGQRVPPGTSPADVQSCGDPDYVQSIAGSTMLQFAKTRKISIERSDLRNRSLLQKRQFFHSHRAQPMALEQVLSDRDSEDEVDDDVADFEDRRMLDDFVDVTKDEKQMMHMWNSFVRKQRVLADGHIPWACEAFSRLHGPIMVRTPHLIWCWRVFMVKLWNHGLLDARTMNNCNTFLEQLQI"}, "B3": {"name": "FIE, Q9LT47 1-369 (protein)", "chain": "MSKITLGNESIVGSLTPSNKKSYKVTNRIQEGKKPLYAVVFNFLDARFFDVFVTAGGNRITLYNCLGDGAISALQSYADEDKEESFYTVSWACGVNGNPYVAAGGVKGIIRVIDVNSETIHKSLVGHGDSVNEIRTQPLKPQLVITASKDESVRLWNVETGICILIFAGAGGHRYEVLSVDFHPSDIYRFASCGMDTTIKIWSMKEFWTYVEKSFTWTDDPSKFPTKFVQFPVFTASIHTNYVDCNRWFGDFILSKSVDNEILLWEPQLKENSPGEGASDVLLRYPVPMCDIWFIKFSCDLHLSSVAIGNQEGKVYVWDLKSCPPVLITKLSHNQSKSVIRQTAMSVDGSTILACCEDGTIWRWDVITK"}, "B4": {"name": "MSI1, O22467 1-424 (protein)", "chain": "MGKDEEEMRGEIEERLINEEYKIWKKNTPFLYDLVITHALEWPSLTVEWLPDREEPSGKDYSVQKMILGTHTSESEPNYLMLAQVQLPLDDTESEARQYDDDRSEFGGFGCATGKVQIIQQINHDGEVNRARYMPQNPFIIATKTVNAEVYVFDYSKHPSKPPLDGACNPDLKLRGHSSEGYGLSWSKFKQGHLLSGSDDAQICLWDINATPKNKSLDAQQIFKAHEGVVEDVAWHLRHEYLFGSVGDDQYLLIWDLRSPSASKPVQSVVAHSMEVNCLAFNPFNEWVVATGSTDKTVKLFDLRKLSTALHTFDSHKEEVFQVGWNPKNETILASCCLGRRLMVWDLSRIDEEQTVEDAEDGPPELLFIHGGHTSKISDFSWNPCEDWVISSVAEDNILQIWQMAENIYHDEDDAPGEEPSKAS"}, "B5": {"name": "VERNALIZATION2 (VRN2) (protein, UniProt Q8W5B1 1-440)", "chain": "MCRQNCRAKSSPEEVISTDENLLIYCKPVRLYNIFHLRSLGNPSFLPRCLNYKIGAKRKRKSRSTGMVVFNYKDCNNTLQRTEVREDCSCPFCSMLCGSFKGLQFHLNSSHDLFEFEFKLLEEYQTVNVSVKLNSFIFEEEGSDDDKFEPFSLCSKPRKRRQRGGRNNTRRLKVCFLPLDSPSLANGTENGIALLNDGNRGLGYPEATELAGQFEMTSNIPPAIAHSSLDAGAKVILTTEAVVPATKTRKLSAERSEARSHLLLQKRQFYHSHRVQPMALEQVMSDRDSEDEVDDDVADFEDRQMLDDFVDVNKDEKQFMHLWNSFVRKQRVIADGHISWACEVFSRFYEKELHCYSSLFWCWRLFLIKLWNHGLVDSATINNCNTILENCRNTSVTNNNNNSVDHPSDSNTNNNNIVDHPNDIKNKNNVDNKDNNSRDK"}, "B6": {"name": "LIKE HETEROCHROMATIN PROTEIN 1 (LHP1) (protein, UniProt Q946J8 1-445)", "chain": "MKGASGAVKKKPQVLNEAGEAETAVETVGESRKISGDGGFGSDDGGGGGGGGSGESILREIGDDRPTEDGDEEEEEDEDEDDGGDEEDEEGEGEGGQEERPKLDEGFYEIEAIRRKRVRKGKVQYLIKWRGWPETANTWEPLENLQSIADVIDAFEGSLKPGKPGRKRKRKYAGPHSQMKKKQRLTSTSHDATEKSDSSTSLNNSSLPDIPDPLDLSGSSLLNRDVEAKNAYVSNQVEANSGSVGMARQVRLIDNEKEYDPTLNELRGPVNNSNGAGCSQGGGIGSEGDNVRPNGLLKVYPKELDKNSRFIGAKRRKSGSVKRFKQDGSTSNNHTAPTDQNLTPDLTTLDSFGRIARMGNEYPGVMENCNLSQKTKIEELDITKILKPMSFTASVSDNVQEVLVTFLALRSDGKEALVDNRFLKAHNPHLLIEFYEQHLKYNRTP"}, "B7": {"name": "EMBRYONIC FLOWER1 (EMF1) (protein, UniProt Q9LYD9 1-1096)", "chain": "MGSSIKINSISIDLAGAANEIDMVKCDHFSMRGFVAETRERDLRKCWPFSEESVSLVDQQSYTLPTLSVPKFRWWHCMSCIKDIDAHGPKDCGLHSNSKAIGNSSVIESKSKFNSLTIIDHEKEKKTDIADNAIEEKVGVNCENDDQTATTFLKKARGRPMGASNVRSKSRKLVSPEQVGNNRSKEKLNKPSMDISSWKEKQNVDQAVTTFGSSEIAGVVEDTPPKATKNHKGIRGLMECDNGSSESINLAMSGLQRRKSRKVRLLSELLGNTKTSGGSNIRKEESALKKESVRGRKRKLLPENNYVSRILSTMGATSENASKSCDSDQGNSESTDSGFDRTPFKGKQRNRRFQVVDEFVPSLPCETSQEGIKEHDADPSKRSTPAHSLFTGNDSVPCPPGTQRTERKLSLPKKKTKKPVIDNGKSTVISFSNGIDGSQVNSHTGPSMNTVSQTRDLLNGKRVGGLFDNRLASDGYFRKYLSQVNDKPITSLHLQDNDYVRSRDAEPNCLRDFSSSSKSSSGGWLRTGVDIVDFRNNNHNTNRSSFSNLKLRYPPSSTEVADLSRVLQKDASGADRKGKTVMVQEHHGAPRSQSHDRKETTTEEQNNDDIPMEIVELMAKNQYERCLPDKEEDVSNKQPSQETAHKSKNALLIDLNETYDNGISLEDNNTSRPPKPCSSNARREEHFPMGRQQNSHDFFPISQPYVPSPFGIFPPTQENRASSIRFSGHNCQWLGNLPTVGNQNPSPSSFRVLRACDTCQSVPNQYREASHPIWPSSMIPPQSQYKPVSLNINQSTNPGTLSQASNNENTWNLNFVAANGKQKCGPNPEFSFGCKHAAGVSSSSSRPIDNFSSESSIPALHLLSLLDPRLRSTTPADQHGNTKFTKRHFPPANQSKEFIELQTGDSSKSAYSTKQIPFDLYSKRFTQEPSRKSFPITPPIGTSSLSFQNASWSPHHQEKKTKRKDTFAPVYNTHEKPVFASSNDQAKFQLLGASNSMMLPLKFHMTDKEKKQKRKAESCNNNASAGPVKNSSGPIVCSVNRNPADFTIPEPGNVYMLTGEHLKVRKRTTFKKKPAVCKQDAMKQTKKPVCPPTQNA"}}, "note": "No constants are given. Whether binding was seen depends on the method and setting. In cells and extracts the contact can be indirect. A yes stands for co-enrichment or nearness to the bait. Other partners may have been found. For some of these results: No binding means not detected with the bait. Sequences can lack the tags named with a protein."}
{"molecular_target": "T1, ALP1-GFP (ANTAGONIST OF LIKE HETEROCHROMATIN PROTEIN1 fused in frame to GFP) (Arabidopsis), Q94K49", "T1 chain": "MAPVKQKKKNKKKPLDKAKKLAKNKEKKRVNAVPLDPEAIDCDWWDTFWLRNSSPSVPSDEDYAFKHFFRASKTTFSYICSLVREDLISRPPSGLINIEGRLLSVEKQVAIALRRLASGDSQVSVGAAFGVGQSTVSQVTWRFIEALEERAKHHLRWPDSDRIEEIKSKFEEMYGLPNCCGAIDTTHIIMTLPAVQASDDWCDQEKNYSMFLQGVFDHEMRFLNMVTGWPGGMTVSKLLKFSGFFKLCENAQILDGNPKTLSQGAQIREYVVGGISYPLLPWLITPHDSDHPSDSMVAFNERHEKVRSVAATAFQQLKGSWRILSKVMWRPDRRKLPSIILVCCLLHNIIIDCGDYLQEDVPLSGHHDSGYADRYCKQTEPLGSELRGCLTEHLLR", "assay": "affinity purification with mass spectrometry; GFP-tagged bait immunoprecipitated from extracts of transgenic Arabidopsis plants (pALP1::ALP1-GFP, 35S::ALP1-GFP, 35S::GFP-CLF, 35S::GFP control); co-purifying proteins identified by mass spectrometry (IP-MS); three independent replicates", "details": "remark: other sources report otherwise"}
{"binder": "B1", "binding": "binds"}
{"binder": "B2", "binding": "binds"}
{"binder": "B3", "binding": "binds"}
{"binder": "B4", "binding": "binds"}
{"molecular_target": "T2, ALP1-GFP (ANTAGONIST OF LIKE HETEROCHROMATIN PROTEIN1 fused in frame to GFP) (Arabidopsis) (UniProt Q94K49)", "T2 sequence": "T1 chain", "assay": "affinity purification with mass spectrometry; GFP-tagged bait immunoprecipitated from extracts of transgenic Arabidopsis plants (pALP1::ALP1-GFP, 35S::ALP1-GFP, 35S::GFP-CLF, 35S::GFP control); co-purifying proteins identified by mass spectrometry (IP-MS); three independent replicates", "details": "not given"}
{"binder": "B5", "binding": "no binding"}
{"binder": "B6", "binding": "no binding"}
{"binder": "B7", "binding": "no binding"}
{"molecular_target": "T3, GFP-CLF (CURLY LEAF fused to GFP) (Arabidopsis) (UniProt P93831)", "T3 sequence": "B1 chain", "assay": "affinity purification with mass spectrometry; GFP-tagged bait immunoprecipitated from extracts of transgenic Arabidopsis plants (pALP1::ALP1-GFP, 35S::ALP1-GFP, 35S::GFP-CLF, 35S::GFP control); co-purifying proteins identified by mass spectrometry (IP-MS); three independent replicates", "details": "not given"}
{"binder": "B5", "binding": "binds"}
{"binder": "B6", "binding": "binds"}
{"binder": "B7", "binding": "binds"}
